Drawing on PubChem BioAssay AID328 (DTP/NCI, 2004), this text covers survivor count and T/C for 29 molecules.

The assay deals with BDF1 mice, P388 leukemia ip, median survival T/C. In words: NCI In Vivo Anticancer Drug Screen. Data for tumor model P388 Leukemia (intraperitoneal) in B6D2F1 (BDF1) mice. Particulars: T/C endpoint: median survival time, higher T/C = longer survival. In a few lines:
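In tumour-bearing mice, survival after compound treatment is set against the vehicle group and given as a quotient.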

The mark [1] stands for this setting: dose: 200.0 mg/kg/injection, schedule: Q01DX009 (ip), vehicle: saline with Tween-80.
The mark [2] stands for this setting: dose: 150.0 mg/kg/injection, schedule: Q01DX009 (ip), vehicle: saline.
[3] abbreviates: dose: 400.0 mg/kg/injection, schedule: Q04DX003 (ip), vehicle: saline with Tween-80.
Where [4] appears, read: dose: 400.0 mg/kg/injection, schedule: Q01DX009 (ip), vehicle: saline with Tween-80.
The mark [5] stands for this setting: dose: 100.0 mg/kg/injection, schedule: Q01DX009 (ip), vehicle: saline with Tween-80.
[6] abbreviates: dose: 50.0 mg/kg/injection, schedule: Q01DX009 (ip), vehicle: saline.
Where [7] appears, read: dose: 200.0 mg/kg/injection, schedule: Q04DX003 (ip), vehicle: saline with Tween-80.
Where [8] appears, read: dose: 0.5 mg/kg/injection, schedule: Q01DX009 (ip), vehicle: saline.
The mark [9] stands for this setting: dose: 3.0 mg/kg/injection, schedule: Q01DX009 (ip), vehicle: Klucel (hydroxypropylcellulose) (HPC).

The list shows only some results of the screen, not a fair sample: it is rich in T/C values a quarter to a half above the control, in often repeated tests (any T/C) and in doses without a T/C. Further doses and runs are listed elsewhere. T/C is the treated group as % of the vehicle group. Some doses have a count of surviving animals in place of a T/C: the source holds a T/C of zero for them, seemingly a mark for toxic or unscored doses. Some survivor counts are full or nearly so, which does not show that the dose was tolerated: survival well below the control is almost never listed, so the zero probably covers shortened survival too. Survivors were counted at the toxicity check, usually on the fifth day, unless a day is given; later deaths do not show. Schedule codes are those of the source, taken here to give the interval after Q, in days (D) or hours (H), and the number of doses after X. Some entries were tested several times; their values stand side by side, smallest first. Where survival is the endpoint, this PubChem deposit counts one and a half times the control or more as active, and values a quarter to a half above the control carry no call in these data; other NCI protocols may use other cut-offs. Some T/C values are followed by the survivors on the day toxicity was checked, most often the fifth; where none is given, no animal had died by that day.

Turning to `COC1CCC(OC2C(C)C(O)(C(C)C(=O)O)OC(CC3CC(OC)C(C)C4(O3)OC(C)(C3CCC(C5CCC(C6OC(C)(O)C(C)C(OC)C6C)O5)O3)C(OC)C4C)C2(C)OC)OC1C` (stereo not given), the survivor count is given as 1 of 6 (dose: 2.5 mg/kg/injection, schedule: Q01DX009 (ip), vehicle: saline with Tween-80); 0 of 6 (dose: 2.5 mg/kg/injection, schedule: Q01DX009 (ip), vehicle: saline); 0 of 6 (dose: 5.0 mg/kg/injection, schedule: Q01DX009 (ip), vehicle: saline with Tween-80); 0 of 6 (dose: 10.0 mg/kg/injection, schedule: Q01DX009 (ip), vehicle: saline with Tween-80); 0 of 6 (dose: 20.0 mg/kg/injection, schedule: Q01DX009 (ip), vehicle: saline with Tween-80).

In the case of `c1ccc2c(c1)cc1c3nncn3ncn21`, under setting [1], the survivor count is reported as 4 of 6.

As for `CC1(C)N=C(N)N=C(N)N1c1ccc(CNC(=O)Nc2cccc(S(=O)(=O)F)c2)cc1`, the survivor count (dose: 75.0 mg/kg/injection, schedule: Q01DX009 (ip), vehicle: saline) is recorded as 6 of 6; the survivor count under setting [2] was 6 of 6; the survivor count (dose: 300.0 mg/kg/injection, schedule: Q01DX009 (ip), vehicle: saline) is reported as 6 of 6. Besides, the T/C (dose: 100.0 mg/kg/injection, schedule: Q04DX003 (ip), vehicle: saline) was 145 % of control.

`CCOC(=O)/C(C#N)=C/N(C)Cc1ccccc1`: under setting [1], the survivor count is given as 4 of 6.

With `CCNC(C)(C)C(SS(=O)(=O)O)c1ccc(Cl)s1` (stereo not given), the survivor count under setting [3] is 4 of 6.

On to `CN(C)c1ccc(/C=C/c2ccncc2)cc1`, for which the T/C (dose: 6.25 mg/kg/injection, schedule: Q01DX009 (ip), vehicle: saline with Tween-80) is 125 % of control. Besides, the survivor count (dose: 12.5 mg/kg/injection, schedule: Q01DX009 (ip), vehicle: saline with Tween-80) is given as 0 of 6.

For the molecule `CNC(=O)c1nc(C)c(C)nc1OCc1ccccc1`, the T/C (dose: 200.0 mg/kg/injection, schedule: Q01DX009 (ip), vehicle: saline) was 129 % of control.

With `O=P(OCc1ccccc1)(N(CCCl)CCCl)N1CCN(P(=O)(OCc2ccccc2)N(CCCl)CCCl)CC1` (stereo not given), the T/C (dose: 132.0 mg/kg/injection, schedule: Q04DX003 (ip), vehicle: saline with Tween-80) is 131 % of control.

Regarding `COc1ccc(OC)c(/C=C/C(=O)NCC(O)CO)c1` (stereo not given), the survivor count is 5 of 6 and 6 of 6 under setting [1]; 6 of 6 under setting [4].

On to `COC(=O)C(CCC(=O)O)NC(=O)OCc1ccccc1` (stereo not given), for which the survivor count is 2 of 6 (dose: 200.0 mg/kg/injection, schedule: Q04DX003 (ip), vehicle: Klucel (hydroxypropylcellulose) (HPC)) and 0 of 6 (dose: 400.0 mg/kg/injection, schedule: Q04DX003 (ip), vehicle: Klucel (hydroxypropylcellulose) (HPC)).

On to `CC1(C)N=C(N)N=C(N)N1c1ccc(CCC(=O)Nc2ccc(S(=O)(=O)F)cc2)c(Cl)c1`, for which the survivor count reads like this: under setting [5], 6 of 6; under setting [1], 5 of 6; under setting [4], 0 of 6.

For `O=C(O)C(O)C(O)C(O)C(O)CO.[Mn]` (stereo not given), the T/C runs as follows: (dose: 66.0 mg/kg/injection, schedule: Q01DX009 (ip), vehicle: saline sonified) 125 % of control; (dose: 100.0 mg/kg/injection, schedule: Q01DX009 (ip), vehicle: saline sonified) 133 % of control; (dose: 150.0 mg/kg/injection, schedule: Q01DX009 (ip), vehicle: saline sonified) 129 % of control; under setting [2], 125 % of control.

For the molecule `O=N[O-].[Co].[N-]=C=S.[NH2-].[NH2-].[NH2-].[NH2-]`, the T/C under setting [6] is 127 % of control [5 of 6 alive]. Also, the survivor count by setting is: (dose: 100.0 mg/kg/injection, schedule: Q04DX003 (ip), vehicle: saline with Tween-80) 3 of 6; under setting [7], 1 of 6.

`Cc1cc(C)c(C)[nH]1`: the survivor count reads like this: (dose: 100.0 mg/kg/injection, schedule: Q01DX009 (ip), vehicle: water) 1 of 6; (dose: 100.0 mg/kg/injection, schedule: Q04DX003 (ip), vehicle: water) 0 of 6.

On to `C[N+]1(C2CCC3CCC2C3O)CCCCC1` (stereo not given), for which, where the note is “dose: 400.0 mg/kg/injection, schedule: Q04DX003 (ip), vehicle: saline”, the survivor count is recorded as 0 of 6.

As to `NC(=O)CNC1=C(N2CC2)C(=O)C(NCC(N)=O)=C(N2CC2)C1=O`, the T/C by setting is: under setting [8], 140 % of control; (dose: 1.0 mg/kg/injection, schedule: Q01DX009 (ip), vehicle: saline) 138 % of control.

Regarding `CCN(CC)CCCC(C)NC(=O)c1ccc(Cl)nc1` (stereo not given), the survivor count runs as follows: under setting [5], 6 of 6; (dose: 300.0 mg/kg/injection, schedule: Q01DX009 (ip), vehicle: saline with Tween-80) 2 of 6; under setting [3], 2 of 6.

For `CC(C)CC(=O)CC1(C)CCC(c2ccoc2)O1` (stereo not given), under setting [1], the T/C was 125 % of control [4 of 6 alive].

Turning to `c1ccc2c(c1)OCCOCCOc1ccccc1OCCOCCO2`, the survivor count by setting is: (dose: 37.5 mg/kg/injection, schedule: Q01DX009 (ip), vehicle: saline with Tween-80) 6 of 6; (dose: 75.0 mg/kg/injection, schedule: Q01DX009 (ip), vehicle: saline with Tween-80) 5 of 6.

On to `N/C(=N\OC(=O)NC(Cl)=C(Cl)Cl)c1ccc(Cl)cc1`, for which, under “dose: 200.0 mg/kg/injection, schedule: Q01DX005 (ip), vehicle: saline with Tween-80”, the survivor count was 2 of 5.

Turning to `C[C@H]1C[C@H]2[C@@H]3CC[C@](O)(C(=O)CO)[C@@]3(C)C[C@H](O)[C@]2(F)[C@@]2(C)C=CC(=O)C=C12`, the survivor count is 6 of 6 under setting [5], 5 of 6 under setting [1] and 5 of 6 under setting [4].

As for `Nc1c(C(=O)O)[nH]c(=O)[nH]c1=O`, the survivor count under setting [1] is given as 6 of 6.

For `O=C1C(NCC(O)CO)=C(N2CC2)C(=O)C(NCC(O)CO)=C1N1CC1` (stereo not given), the T/C reads like this: under setting [8], 140 % of control; (dose: 3.0 mg/kg/injection, schedule: Q01DX009 (ip), vehicle: saline) 129 % of control. In addition, the survivor count (dose: 4.0 mg/kg/injection, schedule: Q01DX009 (ip), vehicle: saline) is on record as 4 of 6.

Consider `COC(=O)/C=C1\C(C(=O)OC)=Cc2ccccc2N1C`, for which, under setting [3], the survivor count is recorded as 6 of 6.

Consider `[N-]=[N+]=CC(=O)CCC(N)C(=O)O` (stereo not given), for which the T/C by setting is: (dose: 0.03 mg/kg/injection, schedule: Q01DX010 (ip), vehicle: saline) 125 % of control; (dose: 0.05 mg/kg/injection, schedule: Q01DX010 (ip), vehicle: saline) 131 and 140 % of control; (dose: 0.1 mg/kg/injection, schedule: Q01DX010 (ip), vehicle: saline) 140 % of control; (dose: 0.4 mg/kg/injection, schedule: Q01DX010 (ip), vehicle: water) 125 % of control.

As for `NC(=S)N1N=C(c2cccc([N+](=O)[O-])c2)CCC1=O`, under setting [7], the survivor count was 6 of 6.

Turning to `c1ccc2c(c1)Sc1ccccc1N2CCCN1CCCC1`, the T/C under setting [6] was 136 % of control.

In the case of `CCSC(=O)N1c2ccc(OC)cc2C=CC1C#N` (stereo not given), the T/C is, setting by setting: (dose: 266.0 mg/kg/injection, schedule: Q04DX003 (ip), vehicle: saline with Tween-80) 125 % of control; under setting [3], 125 % of control.

As for `CCCCCCCCNc1cc2c3c(c1)CCCN3CCC2`, the T/C (dose: 0.75 mg/kg/injection, schedule: Q01DX009 (ip), vehicle: Klucel (hydroxypropylcellulose) (HPC)) was 132 % of control; the T/C (dose: 1.5 mg/kg/injection, schedule: Q01DX009 (ip), vehicle: Klucel (hydroxypropylcellulose) (HPC)) was 135 % of control; the T/C (dose: 2.0 mg/kg/injection, schedule: Q01DX009 (ip), vehicle: Klucel (hydroxypropylcellulose) (HPC)) is 129 % of control; the T/C under setting [9] was 137 % of control. The survivor count is recorded as 6 of 6 under setting [9]; 6 of 6 (dose: 4.5 mg/kg/injection, schedule: Q01DX009 (ip), vehicle: Klucel (hydroxypropylcellulose) (HPC)); 6 of 6 (dose: 6.0 mg/kg/injection, schedule: Q01DX009 (ip), vehicle: Klucel (hydroxypropylcellulose) (HPC)).
